{"source": "PubChem BioAssay AID2685", "about": "(National Center for Advancing Translational Sciences (NCATS), 2010)", "note": "The whole screen tested about 320,000 compounds, of which about 2,100 (0.66%) were called active. Inconclusive means that the source gave no clear call. Such entries were picked first, then a sample of the others. Calls come from the whole dose curve; as a rule, active = well fitted inhibition curve with a large enough effect in the signal ratio, with a control signal flat (not every such curve was filed as active); inconclusive = small, poorly fitted or top-dose-only effect, or effect the other way, or a change in a side signal; inactive = flat fitted curve, though single readings scatter; the % refers to the signal ratio. Where the call is inconclusive, the potency comes from a doubtful curve fit. % is set by controls: 0 for no effect and ±100 for the full control effect; potency is the fitted concentration of half-maximal effect.", "data": [{"experiment": "qHTS Assay for Lipid Storage Modulators in Drosophila S3 Cells", "conditions": "BODIPY lipid droplet fluorescence, 18-24 h, cells fed with added oleic acid; lipid storage change, negative = inhibition: at 46.1 µM (top of the series) unless noted", "procedure,_shortened": "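Laser-scanning cytometry quantifies lipid droplet accumulation (500–530 nm total intensity; droplet/cell object ratio) in oleic acid-fed (400 uM added) Drosophila S3 cells treated with a concentration series. 20 uM Triacsin C defined 100% inhibition.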", "values": [{"smiles": "CC1CCN(C(=O)C(=O)c2cn(CC(=O)N3CCCC3)c3ccccc23)CC1", "lipid storage change, negative = inhibition": "inconclusive: 3.07%"}, {"smiles": "COc1ccc(-n2cc(-c3ccccc3)c3c(NCCOCCO)ncnc32)cc1", "lipid storage change, negative = inhibition": "inconclusive: 5.86%"}, {"smiles": "CCCCN1C(=O)/C(=C2\\SC(N3CCOCC3)=NC2=O)c2ccccc21", "Potency": "active: 8.2 µM"}, {"smiles": "CCN(C(=O)COC(=O)c1cc(S(=O)(=O)N2CCOCC2)ccc1F)C1CCS(=O)(=O)C1", "note": "(stereo unspecified)", "lipid storage change, negative = inhibition": "inconclusive: -0.281%"}, {"smiles": "COc1ccc(S(=O)(=O)NCCc2c[nH]c3ccccc23)cc1OC", "lipid storage change, negative = inhibition": "inconclusive: 15.7%"}, {"smiles": "COCCNC(=O)C(c1ccc(O)cc1)N(Cc1cccs1)C(=O)CCC(=O)Nc1ccccn1", "note": "(stereo unspecified)", "Potency": "inconclusive: 29.1 µM [activator, single point]"}, {"smiles": "Cc1ccc2oc(-c3cccc(NC(=O)c4ccc(Br)o4)c3)nc2c1", "lipid storage change, negative = inhibition": "inconclusive: 11.2%"}, {"smiles": "COc1cc2c(cc1OC)CN(CC(=O)NC(=O)NCc1ccccc1)CC2", "lipid storage change, negative = inhibition": "inconclusive: 73.5%"}, {"smiles": "CCOCc1nnc(NC(=O)C2CCN(C(=O)c3ccco3)CC2)s1", "lipid storage change, negative = inhibition": "inconclusive: -56.4%"}, {"smiles": "CS(=O)(=O)N(Cc1ccccc1)c1ccc(C(=O)NN=C2CCCCCC2)cc1", "lipid storage change, negative = inhibition": "inconclusive: 23.5%"}, {"smiles": "COc1ccccc1CNS(=O)(=O)c1ccc(C)cc1", "Potency": "inconclusive: 18.4 µM [activator, partial curve]"}, {"smiles": "COc1ccc(N2CCN(C(=O)COc3ccc4c(C)cc(=O)oc4c3C)CC2)cc1", "lipid storage change, negative = inhibition": "inconclusive: 17.3%"}, {"smiles": "CCOC(=O)CSc1ccc(C(=O)N2CCN(C)CC2)cc1[N+](=O)[O-]", "lipid storage change, negative = inhibition": "inconclusive: 2.3%"}, {"smiles": "O=C(Nc1ccc(F)cc1)N(Cc1nnc2n1CCCCC2)c1ccccc1", "lipid storage change, negative = inhibition": "inconclusive: -16.2%"}, {"smiles": "N/C(=N\\OC(=O)CN1C(=O)c2ccccc2C1=O)c1ccc(Br)cc1", "lipid storage change, negative = inhibition": "inconclusive: 13.8% [at 9.22 µM]"}, {"smiles": "O=C(Nc1nc(-c2ccncc2)cs1)c1ccco1", "Potency": "inconclusive: 1.64 µM [activator, partial curve]"}, {"smiles": "CN(C)c1nc(NCc2ccccc2)nc(SCC(N)=O)n1", "lipid storage change, negative = inhibition": "inconclusive: -43.1%"}, {"smiles": "N#Cc1ccc(C23CC4(C2)[C@H](CN(Cc2ccc(-c5ccccc5)cc2)[C@@H]4c2ccccc2)C3c2ccc(Cl)nc2)cc1", "note": "(stereo partly specified)", "lipid storage change, negative = inhibition": "inconclusive: 19.1%"}, {"smiles": "CC(=O)Nc1cccc(NC(=O)c2cc(-c3ccccn3)nc3ccc(Cl)cc23)c1", "lipid storage change, negative = inhibition": "inconclusive: 7.19%"}, {"smiles": "O=C1CCCC(O)=C1N=Nc1ccc(Cl)c(Cl)c1", "lipid storage change, negative = inhibition": "inconclusive: 12%"}, {"smiles": "CC(=O)Oc1ccccc1C(=O)Nc1ncc([N+](=O)[O-])s1", "Potency": "inconclusive: 23.1 µM [cytotoxic, single point]"}]}]}
